Source: PubChem BioAssay AID308 (DTP/NCI, 2004)
The list shows only some results of the screen, not a fair sample: it is rich in T/C values a quarter to a half above the control, in often repeated tests (any T/C) and in doses without a T/C. Other doses and runs of a compound stand elsewhere. T/C: endpoint of the treated group in % of that of the vehicle group. Some entries give survivors of the animals treated and no T/C: the source holds a T/C of zero for them, seemingly a mark for toxic or unscored doses. Some survivor counts are full or nearly so, which does not show that the dose was tolerated: the source hardly ever lists a survival T/C far under the control, and the zero likely stands for such cases as well. Counts of survivors are from the toxicity check (mostly the fifth day) where no day follows; animals may have died later. Schedules are NCI's codes, read here as Q, the interval in days (D) or hours (H), X, the number of doses. Some schedules carry Z or #; the key to these is not given. For survival time, this PubChem deposit counts one and a half times the control or more as active, and values a quarter to a half above the control carry no call in these data; other NCI protocols may use other cut-offs. Some entries hold several experiments; the results are listed from low to high. Some T/C values carry the count of animals alive at the toxicity check (mostly the fifth day); without a count, all were alive then.

Tested on: BDF1 mice, L1210 6-MP/6-TG resistant leukemia ip, survival T/C
Test: NCI In Vivo Anticancer Drug Screen. Data for tumor model L1210 Leukemia resistant to 6-MP and 6-Thioguanine; NSC 755, NSC 752 (intraperitoneal) in B6D2F1 (BDF1) mice
Settings: T/C endpoint: mean survival time, higher T/C = longer survival
Description: The antitumor activity of compounds was measured in mice bearing transplantable tumors. Survival or tumor size were measured and the results are expressed as the measurement made in the treated group (T) divided by the measurement made in the vehicle treated control group (C). The tumor model used in this assay is L1210 Leukemia resistant to 6-MP and 6-Thioguanine; NSC 755, NSC 752 (intraperitoneal) in B6D2F1 (BDF1) mice

[1] = dose: 20.0 mg/kg/injection, schedule: Q01DX Z (ip), vehicle: carboxymethylcellulose (CMC)
[2] = dose: 375.0 mg/kg/injection, schedule: Q01DX Z (ip), vehicle: carboxymethylcellulose (CMC)
[3] = dose: 500.0 mg/kg/injection, schedule: Q01DX Z (ip), vehicle: carboxymethylcellulose (CMC)
[4] = dose: 30.0 mg/kg/injection, schedule: Q01DX015 (ip), vehicle: saline
[5] = dose: 25.0 mg/kg/injection, schedule: Q01DX Z (ip), vehicle: carboxymethylcellulose (CMC)
[6] = dose: 50.0 mg/kg/injection, schedule: Q01DX Z (ip), vehicle: carboxymethylcellulose (CMC)
[7] = dose: 100.0 mg/kg/injection, schedule: Q01DX Z (ip), vehicle: carboxymethylcellulose (CMC)

SMILES: CN(Cc1cnc2nc(N)nc(N)c2n1)c1ccc(C(=O)N[C@@H](CCC(=O)O)C(=O)O)cc1
- T/C (dose: 0.26 mg/kg/injection, schedule: Q02DX010 (ip), vehicle: carboxymethylcellulose (CMC)): 132 % of control
- T/C (dose: 0.4 mg/kg/injection, schedule: Q02DX010 (ip), vehicle: carboxymethylcellulose (CMC)): 132 % of control

SMILES: COc1cc([C@@H]2c3cc4c(cc3[C@H](O)[C@H]3COC(=O)[C@@H]23)OCO4)cc(OC)c1OC
- T/C [1]: 141 % of control
- survivor count (dose: 80.0 mg/kg/injection, schedule: Q01DX Z (ip), vehicle: carboxymethylcellulose (CMC)): 6 of 6

SMILES: O=NN(CCCl)C(=O)NCCCl
- T/C (dose: 1.0 mg/kg/injection, schedule: Q01DX015 (ip), vehicle: saline): 102, 115, 118, 152 % of control
- T/C (dose: 4.0 mg/kg/injection, schedule: Q01DX015 (ip), vehicle: saline): 116, 169, 173, 184 % of control

SMILES: CCn1cnc2c(SC3CCCC3)ncnc21
- survivor count [2]: 6 of 6
- survivor count [3]: 6 of 6

SMILES: O=C1C(NC(=O)C2CCCCC2)=C(N2CC2)C(=O)C(NC(=O)C2CCCCC2)=C1N1CC1
- T/C [2]: 128 % of control
- T/C [3]: 135 % of control

SMILES: S=c1nc[nH]c2c1ncn2C1CCCC1
- T/C [4]: 127 % of control

SMILES: CC(C)n1cnc2c(=S)nc[nH]c21
- survivor count (dose: 140.0 mg/kg/injection, schedule: Q01DX015 (ip), vehicle: carboxymethylcellulose (CMC)): 6 of 6
- survivor count (dose: 210.0 mg/kg/injection, schedule: Q01DX015 (ip), vehicle: carboxymethylcellulose (CMC)): 5 of 6

SMILES: Oc1cc(CN(CCCl)CCCl)c(O)cc1CN(CCCl)CCCl
- survivor count (dose: 0.06 mg/kg/injection, schedule: Q01DX Z (ip), vehicle: saline): 3 of 6
- T/C (dose: 0.12 mg/kg/injection, schedule: Q01DX Z (ip), vehicle: saline): 126 % of control [4 of 6 alive]
- survivor count (dose: 0.25 mg/kg/injection, schedule: Q01DX Z (ip), vehicle: saline): 2 of 6
- T/C (dose: 1.0 mg/kg/injection, schedule: Q01DX Z (ip), vehicle: carboxymethylcellulose (CMC)): 136 and 146 % of control
- survivor count (dose: 8.0 mg/kg/injection, schedule: Q01DX Z (ip), vehicle: carboxymethylcellulose (CMC)): 6 of 6
- survivor count (dose: 12.5 mg/kg/injection, schedule: Q01DX Z (ip), vehicle: carboxymethylcellulose (CMC)): 1 of 6
- survivor count [5]: 0 of 6
- survivor count [6]: 0 of 6
- survivor count (dose: 75.0 mg/kg/injection, schedule: Q01DX Z (ip), vehicle: carboxymethylcellulose (CMC)): 0 of 6

SMILES: Nc1ncnc2[nH]ncc12
- survivor count [1]: 6 of 6
- survivor count [6]: 5 of 6
- survivor count [7]: 0 of 6
- survivor count (dose: 200.0 mg/kg/injection, schedule: Q01DX Z (ip), vehicle: carboxymethylcellulose (CMC)): 0 of 6

SMILES: Nc1ncnc2c1ncn2C(C=O)OC(C=O)CO (configuration not stated)
- T/C (dose: 6.0 mg/kg/injection, schedule: Q01DX015 (ip), vehicle: saline): 137 % of control
- T/C (dose: 20.0 mg/kg/injection, schedule: Q01DX015 (ip), vehicle: saline): 127 % of control [4 of 6 alive]
- T/C (dose: 25.0 mg/kg/injection, schedule: Q01DX Z (ip), vehicle: saline): 130 % of control
- survivor count [4]: 2 of 6
- survivor count (dose: 45.0 mg/kg/injection, schedule: Q01DX015 (ip), vehicle: saline): 6 of 6
- survivor count (dose: 67.0 mg/kg/injection, schedule: Q01DX015 (ip), vehicle: saline): 1 of 6
- survivor count (dose: 96.0 mg/kg/injection, schedule: Q01DX015 (ip), vehicle: saline): 1 of 10
- survivor count (dose: 100.0 mg/kg/injection, schedule: Q01DX Z (ip), vehicle: saline): 0 of 7

SMILES: CSc1ncc(Br)c(Sc2nc(N)nc3nc[nH]c23)n1
- survivor count [5]: 6 of 6
- survivor count [6]: 6 of 6
- survivor count [7]: 4 of 6
